Measured values: PMC11060674

By UniProt entry, the sequences of proteins in these tests, tags left out. Where a name states a change or a piece, a line headed by the entry shows the natural chain unless it says otherwise.
UniProt F6H3T7: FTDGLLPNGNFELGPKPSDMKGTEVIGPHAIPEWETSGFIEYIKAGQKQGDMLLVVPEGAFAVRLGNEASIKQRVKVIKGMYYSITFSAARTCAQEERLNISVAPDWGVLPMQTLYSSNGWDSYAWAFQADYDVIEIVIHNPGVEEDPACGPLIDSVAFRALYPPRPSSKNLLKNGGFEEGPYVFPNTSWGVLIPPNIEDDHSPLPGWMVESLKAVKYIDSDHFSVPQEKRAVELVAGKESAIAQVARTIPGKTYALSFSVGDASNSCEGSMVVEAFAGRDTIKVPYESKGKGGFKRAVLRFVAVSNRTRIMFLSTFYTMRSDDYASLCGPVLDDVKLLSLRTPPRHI
UniProt E0CQG0: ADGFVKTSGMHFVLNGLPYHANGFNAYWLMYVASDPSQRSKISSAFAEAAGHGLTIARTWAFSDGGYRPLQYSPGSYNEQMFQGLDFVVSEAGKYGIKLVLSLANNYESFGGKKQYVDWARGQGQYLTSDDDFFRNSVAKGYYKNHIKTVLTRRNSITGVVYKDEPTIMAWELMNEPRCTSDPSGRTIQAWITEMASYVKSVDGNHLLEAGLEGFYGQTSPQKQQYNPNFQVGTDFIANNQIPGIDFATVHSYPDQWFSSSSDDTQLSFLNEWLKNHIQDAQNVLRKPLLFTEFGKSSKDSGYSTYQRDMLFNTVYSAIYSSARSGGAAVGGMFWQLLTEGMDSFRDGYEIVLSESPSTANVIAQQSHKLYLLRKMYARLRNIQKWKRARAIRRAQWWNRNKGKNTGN
UniProt D7TFE6: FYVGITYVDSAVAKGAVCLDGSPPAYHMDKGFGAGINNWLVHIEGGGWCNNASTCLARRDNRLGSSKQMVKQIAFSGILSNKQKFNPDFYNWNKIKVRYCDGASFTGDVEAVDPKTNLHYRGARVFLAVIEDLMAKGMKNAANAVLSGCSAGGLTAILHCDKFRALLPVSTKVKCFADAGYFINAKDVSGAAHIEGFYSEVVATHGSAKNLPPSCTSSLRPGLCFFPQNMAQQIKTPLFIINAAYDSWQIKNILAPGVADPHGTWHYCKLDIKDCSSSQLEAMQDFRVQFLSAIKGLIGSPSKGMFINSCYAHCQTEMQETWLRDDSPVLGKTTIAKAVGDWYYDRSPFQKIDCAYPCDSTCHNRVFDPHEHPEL
UniProt A0ACM8QQ92: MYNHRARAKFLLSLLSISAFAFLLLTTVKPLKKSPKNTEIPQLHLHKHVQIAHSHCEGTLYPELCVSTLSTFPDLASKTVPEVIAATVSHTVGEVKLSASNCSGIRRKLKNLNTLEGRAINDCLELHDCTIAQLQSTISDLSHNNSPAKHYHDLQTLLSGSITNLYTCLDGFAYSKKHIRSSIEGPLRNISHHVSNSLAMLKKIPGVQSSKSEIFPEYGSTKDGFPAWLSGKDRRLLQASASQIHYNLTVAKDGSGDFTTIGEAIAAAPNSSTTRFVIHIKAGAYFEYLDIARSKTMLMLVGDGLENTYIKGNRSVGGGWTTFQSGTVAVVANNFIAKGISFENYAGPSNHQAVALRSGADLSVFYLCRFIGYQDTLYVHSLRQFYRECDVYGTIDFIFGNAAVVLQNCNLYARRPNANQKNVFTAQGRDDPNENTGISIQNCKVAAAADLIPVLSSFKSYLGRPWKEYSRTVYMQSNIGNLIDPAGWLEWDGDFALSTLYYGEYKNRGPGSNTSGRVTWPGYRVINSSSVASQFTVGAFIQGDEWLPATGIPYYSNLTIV

Molecular target: DUF642 domain-containing protein (VvDUF642) (Vitis vinifera (endogenous in grape)) (UniProt F6H3T7)
Assay: affinity purification with mass spectrometry; IP of endogenous VvDUF642 from grape proteins with the VvDUF642 mAb (CNBr-conjugated antibody, overnight), elution with 0.2 M glycine pH 2.5, in-solution trypsin digestion, MS; anti-mouse IgG as control

Row | binding | Substance
1 | binds | cellulase domain-containing protein (VvCDP) (from UniProt E0CQG0)
2 | binds | pectin acetylesterase (VvPAE) (from UniProt D7TFE6) (enzyme)
3 | binds | pectinesterase (VvPEC) (from UniProt A0ACM8QQ92) (enzyme)

These are yes or no findings as the source states them, for the method shown. In cells and extracts the contact can be indirect. A yes stands for co-enrichment or nearness to the bait. Other partners may have been found.
